Experimental data: PubChem BioAssay AID1053208 (Peter MacCallum Cancer Centre, 2014)
The whole screen tested about 17,000 reagents; shown is an unselected part. 788 of all reagents (4.7%) count as active. 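Calls rest on z-score classes alone; an extra cut-off of viability at most 70% of control was not applied to them.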

Aim: 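Synthetic lethal interactions between gene loss and doxorubicin in osteosarcoma cells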 (primary screen)
Cells: mouse osteosarcoma cells, early-passage culture from an engineered mouse model of fibroblastic bone tumour
Reagents: siRNA pool against mouse genes, 40 nM
Duration: about 120 h (48 h before drug, then 72 h with drug)
Challenge: doxorubicin 100 nM for 72 h, roughly 30-40% inhibitory dose
Measurement: 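Luminescent ATP signal taken as viability with or without 100 nM doxorubicin for 72 h; mean of two wells set against non-targeting siRNA and turned into robust z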
Direction: viability z-score with doxorubicin and doxorubicin viability vs non-targeting: higher = more viable cells under doxorubicin; viability z-score without drug: higher = more viable cells with knock-down alone; z-score of drug to no-drug ratio: higher = less drug sensitisation by knock-down
Call rule: 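Called active if knock-down leaves viability unchanged without drug (z within -2 to 2) but lowers it with doxorubicin (z at or under -2)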

gene | combined z-score class | viability z-score with doxorubicin | viability z-score without drug | z-score of drug to no-drug ratio | doxorubicin viability vs non-targeting | call
Rnf186 (GeneID 66825) | no change with or without drug | -1.12 | -0.84 | -0.56 | 0.84 | inactive
Poldip3 (GeneID 73826) | no change with or without drug | -0.45 | -1.35 | 0.56 | 0.9 | inactive
Mall (GeneID 228576) | no change with or without drug | 0 | -0.51 | 0.45 | 0.94 | inactive
Sf3a2 (GeneID 20222) | low cell count with doxorubicin only | -3.15 | 0.17 | -3.26 | 0.66 | active
Gjb6 (GeneID 14623) | no change with or without drug | 0.9 | 0.17 | 0.9 | 1.02 | inactive
H2bc8 (GeneID 319181) | no change with or without drug | 0.22 | 0.17 | 0.22 | 0.96 | inactive
Klhl36 (GeneID 234796) | no change with or without drug | 1.91 | 1.85 | 0.79 | 1.11 | inactive
Ncbp2 (GeneID 68092) | low cell count with and without drug | -4.95 | -6.24 | -1.35 | 0.5 | inactive
Nup160 (GeneID 59015) | low cell count with and without drug | -5.06 | -8.26 | 1.01 | 0.49 | inactive
Prkg1 (GeneID 19091) | no change with or without drug | 1.57 | -0.51 | 2.14 | 1.08 | inactive
Eral1 (GeneID 57837) | no change with or without drug | -0.22 | 0.17 | -0.22 | 0.92 | inactive
Naip1 (GeneID 17940) | no change with or without drug | 0.56 | 0.17 | 0.56 | 0.99 | inactive
Ttll8 (GeneID 239591) | no change with or without drug | 0.45 | 0 | 0.56 | 0.98 | inactive
Vopp1 (GeneID 232023) | no change with or without drug | -1.35 | -1.01 | -0.67 | 0.82 | inactive
2900005J15Rik (GeneID 67261) | no change with or without drug | 0.9 | 0 | 1.01 | 1.02 | inactive
1700013G24Rik (GeneID 69380) | high cell count without drug only | 1.57 | 2.53 | 0 | 1.08 | inactive

Just “z-score of drug to no-drug ratio” (3 entries from above):
Poldip3 (GeneID 73826) = 0.56
Mall (GeneID 228576) = 0.45
Sf3a2 (GeneID 20222) = -3.26

The list goes on.
gene | combined z-score class | viability z-score with doxorubicin | viability z-score without drug | z-score of drug to no-drug ratio | doxorubicin viability vs non-targeting | call
Mlst8 (GeneID 56716) | no change with or without drug | -0.11 | -0.84 | 0.56 | 0.93 | inactive
Isl2 (GeneID 104360) | no change with or without drug | 1.12 | 1.18 | 0.45 | 1.04 | inactive
Spag1 (GeneID 26942) | no change with or without drug | -1.12 | -0.84 | -0.56 | 0.84 | inactive
Tmem167b (GeneID 67495) | no change with or without drug | -0.45 | 0 | -0.34 | 0.9 | inactive
Gabbr1 (GeneID 54393) | no change with or without drug | -0.67 | -0.17 | -0.45 | 0.88 | inactive
Vps37b (GeneID 330192) | no change with or without drug | 0.45 | -0.51 | 1.01 | 0.98 | inactive
Zbtb40 (GeneID 230848) | no change with or without drug | -0.11 | 0.17 | -0.11 | 0.93 | inactive
Npc1l1 (GeneID 237636) | no change with or without drug | -1.8 | -0.67 | -1.35 | 0.78 | inactive
Tnfrsf18 (GeneID 21936) | no change with or without drug | 0.34 | -0.17 | 0.56 | 0.97 | inactive
Irak1bp1 (GeneID 65099) | no change with or without drug | 0.22 | -0.51 | 0.67 | 0.96 | inactive
Rbms3 (GeneID 207181) | no change with or without drug | 0.22 | -0.51 | 0.67 | 0.96 | inactive
Cip2a (GeneID 224171) | no change with or without drug | -1.01 | -0.17 | -0.9 | 0.85 | inactive
Il13ra2 (GeneID 16165) | no change with or without drug | 1.91 | 1.18 | 1.24 | 1.11 | inactive
Abca2 (GeneID 11305) | no change with or without drug | 0.9 | 0.17 | 0.9 | 1.02 | inactive
Pear1 (GeneID 73182) | no change with or without drug | -1.57 | -0.84 | -1.01 | 0.8 | inactive
Rplp2 (GeneID 67186) | low cell count with and without drug | -5.06 | -6.91 | -0.79 | 0.49 | inactive
Ang4 (GeneID 219033) | no change with or without drug | -1.12 | -0.67 | -0.67 | 0.84 | inactive
Ppp4c (GeneID 56420) | low cell count with and without drug | -2.02 | -2.87 | -0.11 | 0.76 | inactive
